From PMC7819943, “Rice protein-binding microarrays: a tool to detect cis-acting elements near promoter regions in rice”
The list shows a part of the results.

Target: T1, OsSMF1 (Oryza sativa, UniProt Q6ZLB0 1-436)
T1 sequence: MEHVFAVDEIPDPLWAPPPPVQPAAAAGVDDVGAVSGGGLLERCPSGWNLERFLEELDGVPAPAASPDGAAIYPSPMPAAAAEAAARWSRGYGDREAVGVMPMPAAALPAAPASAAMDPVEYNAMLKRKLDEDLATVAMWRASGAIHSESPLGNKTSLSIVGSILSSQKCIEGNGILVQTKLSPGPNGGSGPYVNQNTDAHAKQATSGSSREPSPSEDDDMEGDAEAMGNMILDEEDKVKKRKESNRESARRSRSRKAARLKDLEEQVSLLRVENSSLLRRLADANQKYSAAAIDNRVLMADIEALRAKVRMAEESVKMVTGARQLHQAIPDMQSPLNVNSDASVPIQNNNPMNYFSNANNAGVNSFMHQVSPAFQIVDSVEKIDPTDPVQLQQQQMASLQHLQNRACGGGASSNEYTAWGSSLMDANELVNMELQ
Assay: protein-binding microarray (RPBM); PBS, 2% BSA, 51.3 ng/ul salmon testes DNA, 50 uM zinc acetate, 200 nM TF, 25 C, 1 h; high values mean tight binding
Details: protein: recombinant; tags: N-terminal polyhistidine and DsRed monomer fusion (pET32a); chain copies: 2; label: CyDye5-dUTP incorporated in the synthesized complementary strand; 3' TTTTT single-stranded linker to array surface; dsDNA, one strand shown
Outline: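 The binding signal is fluorescence intensity per feature, in arbitrary units, read on an Axon 4000B scanner. Polyhistidine- and DsRed-tagged transcription factors (N-terminal fusions) from E. coli BL21-CodonPlus were purified on Ni–NTA and applied at 200 nM for 1 h at 25 °C to a double-stranded, BSA-blocked custom Agilent array in buffer with 50 µM zinc acetate.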

Row | Sequence | binding signal
1 | GATTGGAGCACGAAATACTATTGCTTAATTCTTCTGAAGACGGAGTCACCTAGTGCAG | 3510 fluorescence intensity (a.u.)
2 | ACACTGGCAAATGGCACGTGGCGTTGTGGCAGTGACTGAGCGGAGTCACCTAGTGCAG | 6440 fluorescence intensity (a.u.)
3 | TCTAGAAATTTAGTTAAACTTGGAGTAGTTTGAATTTAACCGGAGTCACCTAGTGCAG | 9960 fluorescence intensity (a.u.)
4 | GTAGTACCCCACTCCAGTCCACTACTGCGCCGCACAAACGCGGAGTCACCTAGTGCAG | 3800 fluorescence intensity (a.u.)
5 | TCGACCGATTGATCGATTGCTCACTGCCATATACATGATACGGAGTCACCTAGTGCAG | 3860 fluorescence intensity (a.u.)
6 | ACAGGTGGGTCCCACGTAATGCCCCGGGCCCTCGTGTCAGCGGAGTCACCTAGTGCAG | 8430 fluorescence intensity (a.u.)
7 | TGGTCGGTTGGTCCGTCCGTGGCGTGGACTCGAAGCCGCCCGGAGTCACCTAGTGCAG | 4110 fluorescence intensity (a.u.)
8 | GGAGGGGACGACGATGGTGGGGTGGGTGGTGTCCGGGGTGCGGAGTCACCTAGTGCAG | 5630 fluorescence intensity (a.u.)
9 | GTTGACCATGGTTGACTTTGCTGAGTAAGCAGGTGGGACCCGGAGTCACCTAGTGCAG | 6580 fluorescence intensity (a.u.)
10 | TAGTATATGCGTCGTCGTCAGCAGCTTGAGGTACGTGTGTCGGAGTCACCTAGTGCAG | 8070 fluorescence intensity (a.u.)
11 | AGGTTCTATGTTCTAAAAGCCTCAACCACTAACTTTAAAACGGAGTCACCTAGTGCAG | 7420 fluorescence intensity (a.u.)
12 | AACTGACACGTGATGACTTAGCTGGAAGCGGCACGGACGGCGGAGTCACCTAGTGCAG | 3880 fluorescence intensity (a.u.)
13 | TACAGACTACAAAGTATCCATCTCAACATGCTTCGTCAGTCGGAGTCACCTAGTGCAG | 3370 fluorescence intensity (a.u.)
14 | TGCAGCTGAGTTTGTAGAGATCGTTGTACGTACGTCGGCTCGGAGTCACCTAGTGCAG | 3410 fluorescence intensity (a.u.)
15 | CCACCTCCGGCGAGCTCCTCACCCACGCAACCATGGTGCTCGGAGTCACCTAGTGCAG | 4080 fluorescence intensity (a.u.)
16 | ACATCCCCAGCTCTCCGGGCCCGACACGTGTCCCGCACAACGGAGTCACCTAGTGCAG | 16200 fluorescence intensity (a.u.)
17 | CGAGCCCGTTTCACGCTCGCGTGGTTCCGCGATCCCGAAGCGGAGTCACCTAGTGCAG | 3300 fluorescence intensity (a.u.)
18 | TACAGCATCATCTCGCCACGTTCTTCCAAAATATTGGTTGCGGAGTCACCTAGTGCAG | 3450 fluorescence intensity (a.u.)
19 | AGAACCAACAATTACATAACAACATGATGACACTGCATTGCGGAGTCACCTAGTGCAG | 5170 fluorescence intensity (a.u.)
20 | ACTTGCCTACAGCGCCAACGCGCAAACAGCAACCACTAGCCGGAGTCACCTAGTGCAG | 3140 fluorescence intensity (a.u.)
21 | GACCCAGCAAGCAAGAGCGTCTAGTCACCTCAACCACGAACGGAGTCACCTAGTGCAG | 6180 fluorescence intensity (a.u.)
22 | GATTAAATACTGTAGCTACGGATAATCAATCCCACGTGTACGGAGTCACCTAGTGCAG | 7540 fluorescence intensity (a.u.)
23 | ATGCAAGGCGCCATGAACCTAAACGATTAGGTTTTCCGTTCGGAGTCACCTAGTGCAG | 7710 fluorescence intensity (a.u.)
24 | ACTTAGTAAAATGTCATGATGTTGAAGTGTTTAGTGTCCACGGAGTCACCTAGTGCAG | 5890 fluorescence intensity (a.u.)
25 | TTGCAATTGCTGATTGTACATCTGAAATGGTTTCCTTTTGCGGAGTCACCTAGTGCAG | 5010 fluorescence intensity (a.u.)
26 | TAAACAAAGCGCTGCACAAGGAGCGAGGCGGAGGAGGAGGCGGAGTCACCTAGTGCAG | 21700 fluorescence intensity (a.u.)
27 | TAACAAACATAAATCAGTTGAGAGTGAGAGGGACGTGGAACGGAGTCACCTAGTGCAG | 4300 fluorescence intensity (a.u.)

A few values from the list.
binding signal, ACTTAGTAAAATGTCATGATGTTGAAGTGTTTAGTGTCCACGGAGTCACCTAGTGCAG reads 5890 fluorescence intensity (a.u.)
binding signal, TAACAAACATAAATCAGTTGAGAGTGAGAGGGACGTGGAACGGAGTCACCTAGTGCAG reads 4300 fluorescence intensity (a.u.)
binding signal, GTTGACCATGGTTGACTTTGCTGAGTAAGCAGGTGGGACCCGGAGTCACCTAGTGCAG reads 6580 fluorescence intensity (a.u.)
binding signal, AGAACCAACAATTACATAACAACATGATGACACTGCATTGCGGAGTCACCTAGTGCAG reads 5170 fluorescence intensity (a.u.)

(cont.)

Row | Sequence | binding signal
28 | TCTCATCACTCGTGTTAATTCGCATATTCTTTATGGTCTACGGAGTCACCTAGTGCAG | 3200 fluorescence intensity (a.u.)
29 | GCGAACGCCTCTCGCGCGCGTGCTTACTGGTGACTGGTCCCGGAGTCACCTAGTGCAG | 4600 fluorescence intensity (a.u.)
30 | CACTCCCTTCCCCAATTCGCCGTCACCTGCAGCTGAGTGTCGGAGTCACCTAGTGCAG | 3630 fluorescence intensity (a.u.)
31 | CACGCGCCTCGCTGTCACCTATATATGTCCACGTCACCGCCGGAGTCACCTAGTGCAG | 31800 fluorescence intensity (a.u.)
32 | GCTTTATATGGGCCGGCACCTGATGGGCCTTCGTCATTTCCGGAGTCACCTAGTGCAG | 4000 fluorescence intensity (a.u.)
33 | TTTGATTTGGAGGAAGAGGAGAGGGTGGTGTTAGGTGAAACGGAGTCACCTAGTGCAG | 16600 fluorescence intensity (a.u.)
34 | TAGTCCTCCTTGGCTACGGTGTCATAGATCGAGGCCTCCGCGGAGTCACCTAGTGCAG | 50200 fluorescence intensity (a.u.)
35 | AATCGCGAGATATCCACGTGAGATTGCGCAGCGAGACGCGCGGAGTCACCTAGTGCAG | 5140 fluorescence intensity (a.u.)
36 | GTCCGATCCTACTCTCGCGCCACATCGGACGGCCACGATCCGGAGTCACCTAGTGCAG | 3160 fluorescence intensity (a.u.)
37 | AAACTTTATGTATAGAAATAATATATATATATATATATATCGGAGTCACCTAGTGCAG | 29000 fluorescence intensity (a.u.)
38 | CATTTGTAAGTTCAGTTGATATGACATGTAAGTGTATTGTCGGAGTCACCTAGTGCAG | 3960 fluorescence intensity (a.u.)
39 | CGCCCGCCGCCTCCGTCGTCCCCGACCTCTACCACGCCCTCGGAGTCACCTAGTGCAG | 3300 fluorescence intensity (a.u.)
40 | GACCAATTGAAGGTGGTCCACCGGCAATCCTCCCACGTCGCGGAGTCACCTAGTGCAG | 3530 fluorescence intensity (a.u.)
41 | GAAGAAGAGCAAGCCCAAGTGTGCATGCGTGTATGCGCACCGGAGTCACCTAGTGCAG | 3610 fluorescence intensity (a.u.)
42 | TGAATACTGATGGCTACTGATTAACAGGTACACATCAGCCCGGAGTCACCTAGTGCAG | 4810 fluorescence intensity (a.u.)
43 | TGTATGGGCCTTACGTCAGCACGGCCCAGTTGCTGGTTTTCGGAGTCACCTAGTGCAG | 17700 fluorescence intensity (a.u.)
44 | AGGATGGAGGGAGTACTTATCTGACCTCAGAATCCAGGCGCGGAGTCACCTAGTGCAG | 3220 fluorescence intensity (a.u.)
45 | ACTACGTTATGCATTTGTTTAAGAAAATTGTTAATTTCGACGGAGTCACCTAGTGCAG | 3260 fluorescence intensity (a.u.)
46 | GAGCCTGCTTTGTTTTCTTAATTTGTCATGATCTTTCATCCGGAGTCACCTAGTGCAG | 3350 fluorescence intensity (a.u.)
47 | TGTCCGGACTTGATGACGCCGCTGGCTCCATCACCGACAACGGAGTCACCTAGTGCAG | 5550 fluorescence intensity (a.u.)
48 | AAACCCAAGCAAACCAGCAGCTACTAAGCAAAGCACAACCCGGAGTCACCTAGTGCAG | 33900 fluorescence intensity (a.u.)
49 | CGACCCAGCAAAATCTTCTTCTCCCGAGACGAACCACCCGCGGAGTCACCTAGTGCAG | 25500 fluorescence intensity (a.u.)
50 | GTGGCGCGCGCGCGCACGCACGCTGGGCGACACGCCACGCCGGAGTCACCTAGTGCAG | 4530 fluorescence intensity (a.u.)
51 | GAAGCCCTAGCCTAGGAGTGAGAGGTCCCACGTCTTCCCCCGGAGTCACCTAGTGCAG | 3780 fluorescence intensity (a.u.)
52 | AGAAAGTCTGACGAGAATTAATACCTTCGTCAAAGCCAGCCGGAGTCACCTAGTGCAG | 38600 fluorescence intensity (a.u.)
53 | ATTGCCTACATGCCTAGTACTCCCCAGCGAGGTGGAGGTGCGGAGTCACCTAGTGCAG | 4180 fluorescence intensity (a.u.)
54 | CCCACCAGCACTTTCCAGAGAAACAAACTCCACGTGTGACCGGAGTCACCTAGTGCAG | 8780 fluorescence intensity (a.u.)
